Data taken from the supplement of paper PMC9454738.
Counter-ions that a name gives are not always drawn. ± gives the standard deviation of the averaged measurements. The list shows a part of the results. Repeats in this data set agree poorly, so a single value says little.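 Assays used MDA-MB-231 triple-negative breast cancer cells and their brain-metastatic line MDA-MB-231BRM, stably carrying empty vector, full-length GLI1 or truncated tGLI1. After 48 h, viability was read with CellTiter-Blue and normalized to 1% DMSO vehicle. tGLI1 selectivity meant viability fell 20% more in tGLI1 cells than in vector and GLI1 cells.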

The compounds below were run on MDA-MB-231BRM tGLI1 (assay: cell viability relative to vehicle (DMSO) control (fraction); higher = more viable cells (less growth inhibition)). Conditions: 5 µM; treatment time 48 h.

Point of comparison: `CC(C)CC(=O)Nc1n[nH]c2c1CN(C(=O)C1CCN(C)CC1)C2(C)C`, cell viability 0.889. Against it:
- C[C@H]1[C@H](C)CC[C@]2(C(=O)O)CC[C@]3(C)C(=CC[C@@H]4[C@@]5(C)C[C@@H](O)[C@H](O)[C@@](C)(CO)[C@@H]5CC[C@]43C)[C@H]12 [Asiatic Acid] — higher, 0.952
- O=C1NC(=O)C(c2ccccc2[N+](=O)[O-])=C1Nc1ccc(O)c(Cl)c1 — lower, 0.556
- Cc1c(Cn2c(C)nc3c(C(=O)O)cc(N4CCOCC4)cc32)cccc1C(F)(F)F — lower, 0.797
- Cc1ccc(NC(=O)c2ccc(CN3CCN(C)CC3)cc2)cc1Nc1nccc(-c2cccnc2)n1 [Imatinib (STI571)] — lower, 0.78
- CCC(=O)NCC[C@@H]1CCc2ccc3c(c21)CCO3 [Ramelteon (TAK-375)] — higher, 1.03
- NC(=O)Nc1cc(-c2cccc(F)c2)sc1C(=O)N[C@H]1CCCNC1 — lower, 0.848
- COc1cc2ncnc(Oc3ccc(CC(=O)Nc4cnn(C(C)C)c4)cc3)c2cc1OC — higher, 0.905
- CC(C)(C)NS(=O)(=O)c1cncc(-c2cc(F)c3nc(N)nn3c2)c1 — higher, 1.02
- O=C(Nc1cc(C(F)(F)F)cc(C(F)(F)F)c1)c1cc(Cl)ccc1O — higher, 0.999
- CN1CCC(COc2cnc(-c3cccc(Cn4nc(-c5cccc(C#N)c5)ccc4=O)c3)nc2)CC1 — higher, 0.968
- COc1cc2ncc(-c3ccccc3)nc2cc1OC [Tyrphostin AG 1296] — lower, 0.456
- C1=N/C2=N/c3ccc(OCCN4CCCC4)c(c3)COC/C=C/COCc3cccc(c3)C(=C1)N2 [Pacritinib (SB1518)] — lower, 0.805
- O=C(NCCO)c1cccc(-c2cc(Nc3ccc(OC(F)(F)F)cc3)ncn2)c1 — higher, 0.953
- N#CC(=C(/N)Sc1ccccc1N)/C(C#N)=C(\N)Sc1ccccc1N — lower, 0.809
- CN(C)Cc1cccc(N/C(=C2\C(=O)Nc3cc(C(N)=O)ccc32)c2ccccc2)c1 — higher, 0.939
- C[C@@H](CN1CC(=O)NC(=O)C1)N1CC(=O)NC(=O)C1 [Dexrazoxane Hydrochloride] — higher, 1.03
- COc1ccc(-c2ccc3ncc4c(c3c2)n(-c2ccc(N3CCNCC3)c(C(F)(F)F)c2)c(=O)n4C)cn1 — lower, 0.372
- CC(C)(C)c1cnc(CSc2cnc(NC(=O)C3CCNCC3)s2)o1 — higher, 0.952
- Cc1c(F)cc(C(=O)NC2CC2)cc1-c1ccc(C(=O)NCC(C)(C)C)cn1 — higher, 0.965
- CCCC1O[C@@H]2C[C@H]3[C@@H]4CCC5=CC(=O)C=C[C@]5(C)[C@H]4[C@@H](O)C[C@]3(C)[C@]2(C(=O)CO)O1 (some centres undefined) [Budesonide] — higher, 0.987
- C[C@@H](Oc1cc(-c2cnn(C3CCNCC3)c2)cnc1N)c1c(Cl)ccc(F)c1Cl — within error, 0.893 ± 0.013
- O=C1NC(=O)/C(=C/c2ccc3nccc(-c4ccncc4)c3c2)S1 — the same, 0.889
- Cc1ccc2nc(NCCN)c3ncc(C)n3c2c1 — higher, 0.98
- CC(=O)[C@]1(O)Cc2c(O)c3c(c(O)c2[C@@H](O[C@H]2C[C@H](N)[C@H](O)[C@H](C)O2)C1)C(=O)c1ccccc1C3=O [Idarubicin HCl] — lower, -0.0472
- NC1(c2ccc(-c3nc4ccn5c(=O)[nH]nc5c4cc3-c3ccccc3)cc2)CCC1 — lower, 0.795
- O=C1NC(=O)/C(=C/c2ccc(-c3ccc(F)cc3O)o2)S1 — higher, 1.11
- CN(C)CCOc1ccc(-c2nc(-c3ccncc3)c(-c3ccc4c(c3)CC/C4=N\O)[nH]2)cc1 — lower, 0.294
- O=C1NC(=O)/C(=C/c2cccc(C(F)(F)F)c2)S1 — higher, 1.03
- C=CC(=O)Nc1ccc2ncnc(Nc3cccc(Br)c3)c2c1 — lower, 0.851
- COc1cc(F)c(F)c(Nc2ccc(I)cc2F)c1NS(=O)(=O)C1(C[C@H](O)CO)CC1 [Refametinib (RDEA119, Bay 86-9766)] — lower, 0.886
- Cc1cc(CN2CCN(c3c(Br)cnc4nc(-c5ccc(N6CCN(C)CC6)cc5)[nH]c34)CC2)no1 — lower, 0.882
- Cc1cc(F)c(Nc2ncnc3cc(OCc4ccccc4)ccc23)cc1O — higher, 1.09
- CN1CCC(CNc2ccc3ncc(-c4cccc(OC(F)(F)F)c4)n3n2)CC1 [SGI-1776 free base] — lower, 0.819
- COc1cc(OC)c(/C=C/S(=O)(=O)Cc2ccc(OC)c(NCC(=O)O)c2)c(OC)c1 — higher, 1.07
- COc1ncc(-c2ccc3nccc(-c4ccnnc4)c3c2)cc1NS(=O)(=O)c1ccc(F)cc1F — lower, 0.876
- S=C(NCc1ccc2c(c1)OCO2)N1CCN(c2ncnc3c2oc2ccccc23)CC1 [Amuvatinib (MP-470)] — lower, 0.816
- OCCn1cc(-c2cnc3nnn(Cc4ccc5ncccc5c4)c3n2)cn1 — higher, 1.03
- Cc1c(NC(=O)c2ccc(C(C)(C)C)cc2)cccc1-c1cn(C)c(=O)c(Nc2ccc(C(=O)N3CCOCC3)cc2)n1 — lower, 0.745
